Measured values: article PMC7311471, “The iron–sulphur cluster in human DNA2 is required for all biochemical activities of DNA2”

Sequences of proteins named here, by UniProt entry; tags and fusion partners are left off. A change or cut given only in a name is not applied to a line headed by its entry.
UniProt P38859: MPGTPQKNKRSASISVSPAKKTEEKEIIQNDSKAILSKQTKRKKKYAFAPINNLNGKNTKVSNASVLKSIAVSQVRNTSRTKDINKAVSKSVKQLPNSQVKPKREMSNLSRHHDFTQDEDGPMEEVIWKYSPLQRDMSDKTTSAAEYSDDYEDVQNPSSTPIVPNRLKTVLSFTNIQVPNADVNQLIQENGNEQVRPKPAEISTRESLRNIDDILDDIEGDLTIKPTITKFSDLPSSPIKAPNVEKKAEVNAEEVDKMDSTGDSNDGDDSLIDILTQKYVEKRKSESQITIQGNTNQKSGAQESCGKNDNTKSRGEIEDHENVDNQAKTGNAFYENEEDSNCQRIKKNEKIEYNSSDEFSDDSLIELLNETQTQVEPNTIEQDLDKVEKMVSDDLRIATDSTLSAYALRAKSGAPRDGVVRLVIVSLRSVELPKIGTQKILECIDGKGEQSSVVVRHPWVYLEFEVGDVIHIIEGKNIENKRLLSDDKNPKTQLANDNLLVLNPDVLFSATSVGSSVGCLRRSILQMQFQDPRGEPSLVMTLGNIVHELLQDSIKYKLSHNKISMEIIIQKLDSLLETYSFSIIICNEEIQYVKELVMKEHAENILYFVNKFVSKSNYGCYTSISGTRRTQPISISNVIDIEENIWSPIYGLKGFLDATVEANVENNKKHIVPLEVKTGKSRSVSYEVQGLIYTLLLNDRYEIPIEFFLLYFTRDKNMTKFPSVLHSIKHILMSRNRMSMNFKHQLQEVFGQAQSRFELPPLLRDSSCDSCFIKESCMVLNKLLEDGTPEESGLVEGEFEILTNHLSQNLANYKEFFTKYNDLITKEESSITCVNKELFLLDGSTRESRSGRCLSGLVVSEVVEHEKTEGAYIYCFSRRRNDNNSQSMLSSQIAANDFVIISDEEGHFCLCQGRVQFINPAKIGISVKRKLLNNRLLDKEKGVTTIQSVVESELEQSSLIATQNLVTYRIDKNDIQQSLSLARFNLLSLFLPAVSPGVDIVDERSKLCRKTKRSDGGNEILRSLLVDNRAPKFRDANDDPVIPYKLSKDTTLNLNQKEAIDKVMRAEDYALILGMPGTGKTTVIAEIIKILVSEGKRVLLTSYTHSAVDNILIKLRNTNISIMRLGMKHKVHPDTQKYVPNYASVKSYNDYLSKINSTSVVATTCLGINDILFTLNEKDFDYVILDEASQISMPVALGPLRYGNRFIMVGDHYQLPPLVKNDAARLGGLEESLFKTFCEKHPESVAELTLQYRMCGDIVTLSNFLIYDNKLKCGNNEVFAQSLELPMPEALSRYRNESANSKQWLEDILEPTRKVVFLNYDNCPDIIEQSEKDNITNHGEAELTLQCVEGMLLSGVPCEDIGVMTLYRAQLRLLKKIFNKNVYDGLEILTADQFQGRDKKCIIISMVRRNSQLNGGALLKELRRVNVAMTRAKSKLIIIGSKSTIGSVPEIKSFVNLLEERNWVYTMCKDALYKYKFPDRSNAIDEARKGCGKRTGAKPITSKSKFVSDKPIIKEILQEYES

Columns and labels:
DNA2 C743S (human) = target: T1, DNA2 C743S (human) (UniProt P51530); assay: EMSA; conditions: 100 nM protein, H2O2, remains sensitive to oxidation; EMSA: 25 mM Tris-HCl pH 8.0, 0.1 mg/ml BSA, 5 mM EDTA, with or without 1 mM DTT, 30 min on ice; 4-5 nM FAM-DNA or 1 nM 32P-DNA; recombinant protein; residues 1-1060; protein details: FLAG; label: FAM (strand and end not shown)
T1 sequence (looked up): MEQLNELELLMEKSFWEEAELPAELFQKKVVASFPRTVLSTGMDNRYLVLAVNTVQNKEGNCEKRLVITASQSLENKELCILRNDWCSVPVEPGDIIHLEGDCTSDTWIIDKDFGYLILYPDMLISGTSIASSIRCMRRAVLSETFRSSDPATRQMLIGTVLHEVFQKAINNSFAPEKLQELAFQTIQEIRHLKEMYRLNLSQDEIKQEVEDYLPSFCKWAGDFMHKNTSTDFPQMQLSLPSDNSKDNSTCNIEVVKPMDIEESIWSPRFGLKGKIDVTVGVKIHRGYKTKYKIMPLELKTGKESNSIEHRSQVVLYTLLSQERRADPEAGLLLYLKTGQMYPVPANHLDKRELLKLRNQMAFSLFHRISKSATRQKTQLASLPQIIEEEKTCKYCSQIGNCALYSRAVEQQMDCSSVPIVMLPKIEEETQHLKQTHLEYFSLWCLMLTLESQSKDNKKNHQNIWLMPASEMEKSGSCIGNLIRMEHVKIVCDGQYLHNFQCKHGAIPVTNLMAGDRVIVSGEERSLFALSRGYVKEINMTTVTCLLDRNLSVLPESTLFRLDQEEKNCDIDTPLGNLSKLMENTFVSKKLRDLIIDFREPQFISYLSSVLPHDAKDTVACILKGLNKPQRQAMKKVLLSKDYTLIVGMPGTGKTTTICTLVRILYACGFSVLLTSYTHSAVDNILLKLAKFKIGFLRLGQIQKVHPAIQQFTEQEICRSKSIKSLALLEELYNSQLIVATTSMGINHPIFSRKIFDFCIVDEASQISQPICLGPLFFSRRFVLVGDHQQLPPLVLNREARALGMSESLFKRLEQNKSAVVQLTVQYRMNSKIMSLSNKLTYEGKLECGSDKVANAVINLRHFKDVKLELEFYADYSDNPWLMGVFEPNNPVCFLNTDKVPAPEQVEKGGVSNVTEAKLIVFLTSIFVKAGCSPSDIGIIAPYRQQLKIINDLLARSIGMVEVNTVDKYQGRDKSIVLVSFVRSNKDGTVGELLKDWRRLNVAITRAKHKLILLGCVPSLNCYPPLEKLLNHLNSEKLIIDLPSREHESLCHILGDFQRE

[1] = target: yeast Dna2 (S. cerevisiae) (UniProt P38859); assay: EMSA; conditions: 182 nM protein, EMSA: 25 mM Tris-HCl pH 8.0, 0.1 mg/ml BSA, 5 mM EDTA, with or without 1 mM DTT, 30 min on ice, 4-5 nM FAM-DNA or 1 nM 32P-DNA, recombinant protein, protein details: N-terminal FLAG/HA, C-terminal His6, label: FAM (strand and end not shown)

Sequence: ATCGATAGTCGGATCCTCTAGACAGCTCCATGTAGCAAGGCACTGGTAGAATTCGGCAGCGT / GACGCTGCCGAATTCTACCAGTGCCTTGCTAGGACATCTTTGCCCACCTGCAGGTTCACCC / TGGGTGAACCTGCAGGTGGGCAAAGATGTCC [5' flap (FAM)]
- binding result (DNA2 C743S (human)): binds more weakly
- binding result ([1]; H2O2): binds more weakly
- binding result ([1]; no H2O2): binds

Construct, isoform or probe ends are uncertain for at least one entry. The comparison behind a weaker result is the experiment's own reference, which may not be listed here. For part of these data: Where a protein sequence is shown, tags need not be part of it. For part of these data: At least one verdict was read from the data and is not stated in words by the source.
